# According to the supplement of paper PMC6411743:
# Protein sequences, listed by entry. Tags and fused reporters are not part of them. Lines headed by an entry give the natural chain unless they say otherwise; changes in a name come on top.
# UniProt Q9Y478: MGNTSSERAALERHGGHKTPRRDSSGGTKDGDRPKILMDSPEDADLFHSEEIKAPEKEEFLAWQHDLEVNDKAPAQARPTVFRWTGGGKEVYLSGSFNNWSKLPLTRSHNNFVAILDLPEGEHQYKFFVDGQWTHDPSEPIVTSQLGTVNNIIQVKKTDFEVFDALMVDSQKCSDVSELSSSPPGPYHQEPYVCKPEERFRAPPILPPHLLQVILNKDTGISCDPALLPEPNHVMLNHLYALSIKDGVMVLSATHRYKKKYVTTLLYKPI
# UniProt Q9Y230, whole entry: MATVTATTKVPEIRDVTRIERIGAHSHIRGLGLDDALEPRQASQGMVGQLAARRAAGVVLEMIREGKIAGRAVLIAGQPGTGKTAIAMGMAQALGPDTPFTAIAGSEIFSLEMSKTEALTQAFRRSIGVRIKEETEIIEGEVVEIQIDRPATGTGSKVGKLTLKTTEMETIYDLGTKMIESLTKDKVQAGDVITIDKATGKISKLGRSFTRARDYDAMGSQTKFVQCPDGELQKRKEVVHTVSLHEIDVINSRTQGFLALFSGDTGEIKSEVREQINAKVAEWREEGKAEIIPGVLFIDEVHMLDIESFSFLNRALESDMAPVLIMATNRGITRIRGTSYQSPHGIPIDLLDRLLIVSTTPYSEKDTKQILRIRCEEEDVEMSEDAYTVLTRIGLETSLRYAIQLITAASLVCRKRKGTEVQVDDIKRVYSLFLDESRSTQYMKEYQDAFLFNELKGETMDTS
# UniProt Q9UPN9: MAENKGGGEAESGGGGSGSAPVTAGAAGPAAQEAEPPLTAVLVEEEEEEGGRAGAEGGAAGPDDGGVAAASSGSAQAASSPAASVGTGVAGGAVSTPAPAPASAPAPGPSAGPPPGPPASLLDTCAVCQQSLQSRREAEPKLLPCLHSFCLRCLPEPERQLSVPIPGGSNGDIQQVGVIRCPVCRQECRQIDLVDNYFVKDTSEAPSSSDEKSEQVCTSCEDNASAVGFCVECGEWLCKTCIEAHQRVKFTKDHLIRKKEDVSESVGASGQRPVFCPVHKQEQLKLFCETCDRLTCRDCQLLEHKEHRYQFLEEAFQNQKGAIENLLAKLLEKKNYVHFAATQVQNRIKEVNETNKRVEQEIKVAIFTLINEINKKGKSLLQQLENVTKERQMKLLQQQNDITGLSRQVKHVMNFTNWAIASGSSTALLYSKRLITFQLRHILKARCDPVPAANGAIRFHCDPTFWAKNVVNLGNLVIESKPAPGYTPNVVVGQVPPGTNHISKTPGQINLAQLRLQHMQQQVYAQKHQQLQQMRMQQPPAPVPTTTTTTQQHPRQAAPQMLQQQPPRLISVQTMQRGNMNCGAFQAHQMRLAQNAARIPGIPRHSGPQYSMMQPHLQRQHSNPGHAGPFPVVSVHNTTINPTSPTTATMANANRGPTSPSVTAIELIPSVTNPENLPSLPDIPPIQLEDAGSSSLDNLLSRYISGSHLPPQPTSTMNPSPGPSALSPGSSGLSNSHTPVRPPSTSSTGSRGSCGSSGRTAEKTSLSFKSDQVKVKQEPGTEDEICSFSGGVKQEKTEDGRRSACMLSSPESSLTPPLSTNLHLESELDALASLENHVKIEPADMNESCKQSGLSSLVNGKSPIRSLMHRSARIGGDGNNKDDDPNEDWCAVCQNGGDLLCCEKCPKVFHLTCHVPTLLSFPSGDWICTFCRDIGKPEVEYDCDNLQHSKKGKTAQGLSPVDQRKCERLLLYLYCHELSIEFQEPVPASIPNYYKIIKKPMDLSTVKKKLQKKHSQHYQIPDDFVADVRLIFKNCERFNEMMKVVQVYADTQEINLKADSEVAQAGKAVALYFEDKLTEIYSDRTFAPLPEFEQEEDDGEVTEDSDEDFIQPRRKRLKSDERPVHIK
# UniProt Q9Y2X9: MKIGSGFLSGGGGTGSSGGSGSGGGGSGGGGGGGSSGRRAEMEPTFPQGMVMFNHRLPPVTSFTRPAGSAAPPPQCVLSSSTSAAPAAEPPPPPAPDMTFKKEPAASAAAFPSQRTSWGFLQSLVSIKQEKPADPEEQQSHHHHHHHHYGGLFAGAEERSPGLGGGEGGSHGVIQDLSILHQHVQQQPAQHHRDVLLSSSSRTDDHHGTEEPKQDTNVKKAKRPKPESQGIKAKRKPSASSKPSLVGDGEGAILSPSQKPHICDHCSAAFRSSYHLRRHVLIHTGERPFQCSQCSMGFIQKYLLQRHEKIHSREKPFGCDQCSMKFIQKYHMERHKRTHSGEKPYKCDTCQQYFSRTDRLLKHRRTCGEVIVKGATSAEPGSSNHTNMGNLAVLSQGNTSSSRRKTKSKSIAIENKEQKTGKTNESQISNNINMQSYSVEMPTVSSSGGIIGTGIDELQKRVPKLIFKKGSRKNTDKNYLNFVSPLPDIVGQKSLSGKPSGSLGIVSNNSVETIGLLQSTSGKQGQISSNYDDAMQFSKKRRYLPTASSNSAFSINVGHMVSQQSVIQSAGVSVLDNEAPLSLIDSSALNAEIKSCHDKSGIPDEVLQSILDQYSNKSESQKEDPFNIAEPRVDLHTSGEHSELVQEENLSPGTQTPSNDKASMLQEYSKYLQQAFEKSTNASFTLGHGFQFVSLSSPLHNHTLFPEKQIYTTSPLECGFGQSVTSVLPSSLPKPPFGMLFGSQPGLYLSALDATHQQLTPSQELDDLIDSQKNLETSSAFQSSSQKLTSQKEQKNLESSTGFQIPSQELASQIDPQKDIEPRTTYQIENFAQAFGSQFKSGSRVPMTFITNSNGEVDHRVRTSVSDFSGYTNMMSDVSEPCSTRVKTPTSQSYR
# UniProt Q9Y2X7: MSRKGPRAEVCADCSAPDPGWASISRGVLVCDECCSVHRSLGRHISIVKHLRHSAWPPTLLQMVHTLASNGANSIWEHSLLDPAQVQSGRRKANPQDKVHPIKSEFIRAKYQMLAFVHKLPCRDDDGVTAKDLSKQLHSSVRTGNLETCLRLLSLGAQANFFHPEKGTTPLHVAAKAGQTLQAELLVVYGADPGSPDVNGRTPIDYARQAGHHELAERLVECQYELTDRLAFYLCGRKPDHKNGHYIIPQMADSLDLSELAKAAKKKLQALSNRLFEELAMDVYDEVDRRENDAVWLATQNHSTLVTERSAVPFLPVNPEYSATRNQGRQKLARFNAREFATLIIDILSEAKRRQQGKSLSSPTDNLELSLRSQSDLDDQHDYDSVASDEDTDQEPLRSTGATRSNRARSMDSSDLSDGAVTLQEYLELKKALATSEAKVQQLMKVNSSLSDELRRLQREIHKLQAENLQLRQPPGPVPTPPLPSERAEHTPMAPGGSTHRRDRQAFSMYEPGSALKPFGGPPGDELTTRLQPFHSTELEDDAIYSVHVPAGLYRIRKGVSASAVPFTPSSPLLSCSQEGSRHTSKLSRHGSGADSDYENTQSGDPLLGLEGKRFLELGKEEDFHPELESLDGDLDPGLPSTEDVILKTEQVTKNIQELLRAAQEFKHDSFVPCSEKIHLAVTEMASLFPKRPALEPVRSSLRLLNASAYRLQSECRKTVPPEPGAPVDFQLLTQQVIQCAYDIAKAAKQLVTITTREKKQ
# UniProt Q9Y2C4: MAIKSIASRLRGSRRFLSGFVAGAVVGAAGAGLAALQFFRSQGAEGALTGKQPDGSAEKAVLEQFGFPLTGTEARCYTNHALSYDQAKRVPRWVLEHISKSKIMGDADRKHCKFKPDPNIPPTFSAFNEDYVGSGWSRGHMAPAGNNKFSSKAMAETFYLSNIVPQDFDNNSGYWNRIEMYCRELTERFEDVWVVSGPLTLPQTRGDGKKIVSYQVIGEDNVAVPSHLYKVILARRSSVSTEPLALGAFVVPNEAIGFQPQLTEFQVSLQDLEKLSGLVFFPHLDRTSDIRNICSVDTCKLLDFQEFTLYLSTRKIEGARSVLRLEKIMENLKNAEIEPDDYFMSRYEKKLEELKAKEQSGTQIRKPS
# UniProt Q9Y3E7, whole entry: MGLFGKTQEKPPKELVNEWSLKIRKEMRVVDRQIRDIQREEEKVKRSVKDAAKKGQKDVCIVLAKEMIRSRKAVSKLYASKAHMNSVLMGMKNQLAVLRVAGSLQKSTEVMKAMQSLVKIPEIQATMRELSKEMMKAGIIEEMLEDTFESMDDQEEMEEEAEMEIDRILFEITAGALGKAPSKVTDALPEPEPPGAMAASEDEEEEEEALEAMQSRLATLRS
# UniProt Q9Y285: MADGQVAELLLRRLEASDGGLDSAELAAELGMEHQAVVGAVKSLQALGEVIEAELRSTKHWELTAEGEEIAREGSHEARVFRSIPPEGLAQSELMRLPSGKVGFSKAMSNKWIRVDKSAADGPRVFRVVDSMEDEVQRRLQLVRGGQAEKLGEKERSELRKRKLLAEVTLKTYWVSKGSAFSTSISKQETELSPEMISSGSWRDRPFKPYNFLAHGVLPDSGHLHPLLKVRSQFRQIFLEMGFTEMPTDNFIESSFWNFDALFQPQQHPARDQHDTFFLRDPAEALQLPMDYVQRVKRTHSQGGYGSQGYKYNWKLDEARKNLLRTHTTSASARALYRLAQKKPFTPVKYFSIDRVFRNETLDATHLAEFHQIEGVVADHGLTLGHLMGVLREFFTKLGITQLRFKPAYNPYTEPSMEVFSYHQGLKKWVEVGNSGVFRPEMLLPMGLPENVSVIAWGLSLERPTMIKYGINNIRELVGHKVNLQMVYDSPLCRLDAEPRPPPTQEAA
# UniProt Q9UP83: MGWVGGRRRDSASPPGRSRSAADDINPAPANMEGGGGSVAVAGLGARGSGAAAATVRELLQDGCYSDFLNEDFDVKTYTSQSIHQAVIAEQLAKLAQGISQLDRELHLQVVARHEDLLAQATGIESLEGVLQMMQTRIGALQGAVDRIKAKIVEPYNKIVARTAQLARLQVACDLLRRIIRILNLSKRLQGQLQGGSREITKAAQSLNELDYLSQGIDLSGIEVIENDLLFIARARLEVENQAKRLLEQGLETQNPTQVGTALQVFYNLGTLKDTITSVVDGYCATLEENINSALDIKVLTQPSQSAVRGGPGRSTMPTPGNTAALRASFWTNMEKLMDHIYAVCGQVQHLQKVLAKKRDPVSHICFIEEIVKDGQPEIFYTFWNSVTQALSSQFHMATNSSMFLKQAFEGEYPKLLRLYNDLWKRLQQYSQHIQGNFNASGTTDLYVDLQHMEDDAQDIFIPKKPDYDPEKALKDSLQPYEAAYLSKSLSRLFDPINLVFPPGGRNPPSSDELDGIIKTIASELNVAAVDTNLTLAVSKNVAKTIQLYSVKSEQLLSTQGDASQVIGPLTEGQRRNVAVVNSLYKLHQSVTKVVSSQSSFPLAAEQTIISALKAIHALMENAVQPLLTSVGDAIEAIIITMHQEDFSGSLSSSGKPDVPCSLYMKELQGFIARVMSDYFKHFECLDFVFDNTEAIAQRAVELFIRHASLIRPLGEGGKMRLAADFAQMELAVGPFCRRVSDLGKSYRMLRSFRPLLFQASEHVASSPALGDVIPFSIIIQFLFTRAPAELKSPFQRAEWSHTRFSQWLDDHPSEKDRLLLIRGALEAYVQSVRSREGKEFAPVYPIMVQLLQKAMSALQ
# UniProt Q9Y3D2: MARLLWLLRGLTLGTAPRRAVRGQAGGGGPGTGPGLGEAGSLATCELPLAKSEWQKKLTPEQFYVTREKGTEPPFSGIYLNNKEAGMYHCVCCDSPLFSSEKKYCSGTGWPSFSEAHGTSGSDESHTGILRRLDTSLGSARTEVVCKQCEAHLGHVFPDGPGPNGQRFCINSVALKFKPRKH
# UniProt Q9Y5Q9: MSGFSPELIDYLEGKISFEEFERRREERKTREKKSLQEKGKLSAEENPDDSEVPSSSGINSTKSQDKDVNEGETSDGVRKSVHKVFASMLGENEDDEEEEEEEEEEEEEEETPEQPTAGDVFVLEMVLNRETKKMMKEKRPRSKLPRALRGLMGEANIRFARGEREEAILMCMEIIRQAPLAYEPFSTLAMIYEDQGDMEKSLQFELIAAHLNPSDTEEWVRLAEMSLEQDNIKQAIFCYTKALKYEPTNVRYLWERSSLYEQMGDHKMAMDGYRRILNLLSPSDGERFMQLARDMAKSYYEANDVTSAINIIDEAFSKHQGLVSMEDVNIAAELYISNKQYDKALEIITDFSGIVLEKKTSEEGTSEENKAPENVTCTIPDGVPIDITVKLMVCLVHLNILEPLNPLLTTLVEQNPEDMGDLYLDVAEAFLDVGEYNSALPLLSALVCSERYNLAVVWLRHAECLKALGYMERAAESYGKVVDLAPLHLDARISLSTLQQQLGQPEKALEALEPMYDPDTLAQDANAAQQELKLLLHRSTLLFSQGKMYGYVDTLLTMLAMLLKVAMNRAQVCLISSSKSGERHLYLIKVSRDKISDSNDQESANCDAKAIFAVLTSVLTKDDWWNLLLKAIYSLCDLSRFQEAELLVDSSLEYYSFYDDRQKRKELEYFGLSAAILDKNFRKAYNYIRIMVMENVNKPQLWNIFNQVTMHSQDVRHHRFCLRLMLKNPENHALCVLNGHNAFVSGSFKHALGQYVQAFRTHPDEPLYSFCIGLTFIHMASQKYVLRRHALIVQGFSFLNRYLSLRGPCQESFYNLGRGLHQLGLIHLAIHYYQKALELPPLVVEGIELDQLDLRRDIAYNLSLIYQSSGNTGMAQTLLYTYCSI
# ± gives the standard deviation of the averaged measurements. The list shows a part of the results.
# Compound: Nc1nc2c(ncn2[C@@H]2O[C@H](COP(=O)(O)OP(=O)(O)OP(=O)(O)O)[C@@H](O)[C@H]2O)c(=O)[nH]1 [guanosine triphosphate]
# Test: NP40-soluble protein abundance relative to vehicle (solubility fold change) (ratio); higher = more soluble protein in presence of GTP
# Summary of the method: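 Data come from three independent experiments in which Dounce-homogenised Jurkat crude lysate was treated at eight concentrations from 0.1 to 10 mM. Treatment ran 10 min at room temperature and then 3 min at 37 °C, after which 0.8% NP40 and benzonase were added for 60 min at 4 °C before ultracentrifugation. The supernatant underwent TMT labelling and LC-MS/MS, and vsn-normalised intensities were expressed as fold change against the detergent-processed vehicle in each replicate.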
Target,NP40-soluble protein abundance (concentration: 0.1mM),NP40-soluble protein abundance (concentration: 0.5mM),NP40-soluble protein abundance (concentration: 1mM),NP40-soluble protein abundance (concentration: 2mM),NP40-soluble protein abundance (concentration: 4mM),NP40-soluble protein abundance (concentration: 6mM),NP40-soluble protein abundance (concentration: 8mM),NP40-soluble protein abundance (concentration: 10mM)
PRKAB1 (UniProt Q9Y478),1.05 ± 0.067,1.01 ± 0.054,1.1 ± 0.027,1.01 ± 0.031,1 ± 0.033,1 ± 0.03,1.02 ± 0.067,0.937 ± 0.061
UniProt Q9Y5B8 and related entries,1.07 ± 0.047,1.05 ± 0.066,0.915 ± 0.037,0.971 ± 0.099,0.946 ± 0.067,0.931 ± 0.082,0.871 ± 0.045,0.868 ± 0.096
UniProt Q9Y2H1,1.07 ± 0.053,1.11 ± 0.1,0.999 ± 0.035,1.02 ± 0.12,0.984 ± 0.051,1 ± 0.086,0.983 ± 0.021,0.929 ± 0.089
RUVBL2 (UniProt Q9Y230),1.04 ± 0.025,1.09 ± 0.05,1.08 ± 0.08,1.11 ± 0.11,1.15 ± 0.13,1.15 ± 0.14,1.16 ± 0.14,1.11 ± 0.1
UniProt Q9UPN9 and related entries,0.995 ± 0.024,1.02 ± 0.029,1.06 ± 0.022,1.04 ± 0.036,1.06 ± 0.06,1.05 ± 0.044,1.08 ± 0.064,1.06 ± 0.088
SNX5 (UniProt Q9Y5X3),1.01 ± 0.022,0.964 ± 0.038,0.962 ± 0.023,0.911 ± 0.05,0.935 ± 0.048,0.916 ± 0.058,0.921 ± 0.033,0.875 ± 0.051
TMED5 (UniProt Q9Y3A6),1.05 ± 0.025,0.996 ± 0.023,1.01 ± 0.038,0.988 ± 0.019,0.919 ± 0.032,0.925 ± 0.031,0.925 ± 0.04,0.909 ± 0.078
UniProt Q9Y2X9 and related entries,0.951 ± 0.12,0.933 ± 0.056,1.03 ± 0.071,1.05 ± 0.12,1.08 ± 0.088,1.02 ± 0.1,1.15 ± 0.13,1.08 ± 0.1
GIT1 (UniProt Q9Y2X7),1.01 ± 0.023,1 ± 0.015,1.03 ± 0.021,1.01 ± 0.029,1.05 ± 0.021,1.02 ± 0.016,1.05 ± 0.014,1.02 ± 0.041
RNF114 (UniProt Q9Y508),0.95 ± 0.011,0.967 ± 0.032,0.924 ± 0.041,0.91 ± 0.068,0.895 ± 0.057,0.897 ± 0.056,0.876 ± 0.072,0.888 ± 0.084
UniProt Q9Y2C4 and related entries,1.2 ± 0.083,1.12 ± 0.049,1.11 ± 0.083,1.14 ± 0.088,1.08 ± 0.033,1.07 ± 0.081,1.01 ± 0.034,1.03 ± 0.044
CHMP3 (UniProt Q9Y3E7),1.05 ± 0.09,0.991 ± 0.069,1.09 ± 0.085,1.18 ± 0.063,1.15 ± 0.084,1.09 ± 0.16,1.03 ± 0.17,1.17 ± 0.14
UniProt Q9Y4B5 and related entries,1.04 ± 0.15,1.02 ± 0.0067,1.11 ± 0.11,1.07 ± 0.03,1.109 ± 0.0064,1.09 ± 0.037,1.08 ± 0.076,1.1 ± 0.093
FARSA (UniProt Q9Y285),1.02 ± 0.032,1.03 ± 0.1,0.898 ± 0.06,0.925 ± 0.1,0.931 ± 0.073,0.887 ± 0.091,0.86 ± 0.037,0.851 ± 0.028
UniProt Q9Y2X0-2|Q9Y2X0-3|Q9Y2X0,1.09 ± 0.2,1.07 ± 0.21,1.04 ± 0.17,1.16 ± 0.28,1.08 ± 0.21,1.11 ± 0.16,1.12 ± 0.18,1.04 ± 0.19
UniProt Q9Y2H6 and related entries,1.02 ± 0.075,0.977 ± 0.031,0.9802 ± 0.0098,0.976 ± 0.032,0.979 ± 0.024,0.943 ± 0.037,0.924 ± 0.031,0.922 ± 0.081
NOL7 (UniProt Q9UMY1),0.935 ± 0.059,0.887 ± 0.052,0.988 ± 0.058,0.952 ± 0.095,0.998 ± 0.096,0.998 ± 0.11,1.04 ± 0.079,1.04 ± 0.08
UniProt Q9Y3Y2 and related entries,0.996 ± 0.053,0.928 ± 0.097,1.05 ± 0.1,1.13 ± 0.038,1.19 ± 0.034,1.21 ± 0.046,1.28 ± 0.15,1.49 ± 0.057
UniProt Q9UP83 and related entries,0.99 ± 0.069,1.05 ± 0.045,1.004 ± 0.0091,1.06 ± 0.03,1.02 ± 0.039,1.06 ± 0.079,1.04 ± 0.098,1.07 ± 0.08
MSRB2 (UniProt Q9Y3D2),0.95 ± 0.026,1.06 ± 0.17,0.956 ± 0.12,1.04 ± 0.12,1.03 ± 0.12,1.01 ± 0.07,0.95716 ± 0.00017,1.03 ± 0.014
TLN1 (UniProt Q9Y490),0.951 ± 0.085,0.957 ± 0.077,0.961 ± 0.092,0.921 ± 0.096,0.918 ± 0.085,0.926 ± 0.079,0.949 ± 0.082,0.928 ± 0.093
DDX49 (UniProt Q9Y6V7),1.02 ± 0.056,1.01 ± 0.047,1.03 ± 0.026,1.05 ± 0.072,1.12 ± 0.037,1.19 ± 0.022,1.26 ± 0.076,1.21 ± 0.077
GTF3C3 (UniProt Q9Y5Q9),1.02 ± 0.038,1.09 ± 0.033,1.01 ± 0.038,1.06 ± 0.02,1.01 ± 0.029,1.04 ± 0.017,1.05 ± 0.057,1 ± 0.029
BOLA1 (UniProt Q9Y3E2),0.909 ± 0.069,0.941 ± 0.075,0.943 ± 0.06,0.943 ± 0.028,0.908 ± 0.073,0.933 ± 0.059,0.903 ± 0.038,1.04 ± 0.055
ZC3H4 (UniProt Q9UPT8),0.924 ± 0.044,0.924 ± 0.062,0.997 ± 0.018,0.967 ± 0.059,0.974 ± 0.061,0.994 ± 0.056,1.04 ± 0.051,1.04 ± 0.06

# Full records from above. Values in the order: NP40-soluble protein abundance (concentration: 0.1mM)	NP40-soluble protein abundance (concentration: 0.5mM)	NP40-soluble protein abundance (concentration: 1mM)	NP40-soluble protein abundance (concentration: 2mM)	NP40-soluble protein abundance (concentration: 4mM)	NP40-soluble protein abundance (concentration: 6mM)	NP40-soluble protein abundance (concentration: 8mM)	NP40-soluble protein abundance (concentration: 10mM)
# GTF3C3 (UniProt Q9Y5Q9) in the list: 1.02 ± 0.038	1.09 ± 0.033	1.01 ± 0.038	1.06 ± 0.02	1.01 ± 0.029	1.04 ± 0.017	1.05 ± 0.057	1 ± 0.029
# SNX5 (UniProt Q9Y5X3) in the list: 1.01 ± 0.022	0.964 ± 0.038	0.962 ± 0.023	0.911 ± 0.05	0.935 ± 0.048	0.916 ± 0.058	0.921 ± 0.033	0.875 ± 0.051
